Results: the supplement of paper PMC3334620
Over roughly 33,000 sequences, “E-score (-0.5 to 0.5)” has its median near -0.0059; the highest 2% begin near 0.26. Some of the results follow.

The sequences below were run against T1, Cin5 (UniProt P40917) (assay: PBM E-score (8-mer binding enrichment) (E-score (-0.5 to 0.5)); higher = stronger / more preferred TF binding). Conditions: protein concentration: 100 nM; construct: GST-full length.
T1 sequence: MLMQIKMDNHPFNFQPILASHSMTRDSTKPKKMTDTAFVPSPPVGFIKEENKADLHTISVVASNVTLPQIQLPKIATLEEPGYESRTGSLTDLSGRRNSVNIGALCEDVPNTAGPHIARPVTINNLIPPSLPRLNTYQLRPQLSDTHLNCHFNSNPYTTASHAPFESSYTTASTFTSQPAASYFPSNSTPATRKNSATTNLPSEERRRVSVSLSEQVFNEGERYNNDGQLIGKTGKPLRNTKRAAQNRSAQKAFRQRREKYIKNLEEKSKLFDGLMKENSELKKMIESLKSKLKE
Summary of the method: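 Yeast transcription factors, full-length or as DNA-binding domains, were expressed with a GST tag using PURExpress in vitro transcription/translation. At about 100-200 nM they were applied to universal all-10-mer Agilent arrays, double-stranded by primer extension on fresh or once-stripped slides. Fluorescent anti-GST detected bound protein, and masliner normalised the scans. E-scores for ungapped eight-base words, pooled with reverse complements, came from the Universal PBM Analysis Suite.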

| Sequence | PBM E-score |
| --- | --- |
| ACATTTAG | -0.132 |
| AATCCTGG | 0.00803 |
| GATAGGTA | 0.157 |
| GCTCGCGA | 0.119 |
| AAACCCTT | 0.0723 |
| CATCGCCA | 0.0641 |
| GATATCTA | 0.066 |
| ACGATGTC | -0.0703 |
| AGCGTTAT | -0.0862 |
| CCAAGATA | -0.00856 |
| AACTGGCC | 0.0999 |
| CATGCCAG | -0.054 |
| CGCTTAGA | -0.0919 |
| GTTCTCTA | -0.0729 |
| GAAGGTGC | -0.155 |
| GATACAGA | 0.101 |
| CGGTTGCA | -0.146 |
| ACGAATCG | 0.0934 |
| CGGAGCCG | -0.142 |
| AGCGAACG | -0.137 |
| CGTTTCTA | -0.00786 |
| ATTTCGCC | 0.102 |
| GATACCTA | 0.223 |
| ATCATGAG | 0.085 |
| AGCTACAC | 0.11 |

| Sequence | PBM E-score |
| --- | --- |
| CTTCTCGC | 0.114 |
| CGGCTGAC | 0.174 |
| TACTAGCA | 0.135 |
| AGTGTTTG | 0.191 |
| TCCAGTAA | 0.0264 |
| CCCACGAA | 0.0179 |
| CTTAGGAC | -0.175 |
| CCCATGCC | -0.109 |
| AACACCTA | -0.0786 |
| CACGCAAC | 0.124 |
| ACGGTCAC | -0.139 |
| CAGCAGCC | 0.0402 |
| CGTACCAC | -0.0467 |
| GCTACCCC | -0.317 |
| CAGAAGGG | -0.275 |
| CCGCCAGA | -0.0995 |
| GACACACA | 0.0261 |
| ATCCGCCC | 0.0183 |
| ACGCCACG | -0.212 |
| CGCGCGAC | 0.0018 |
| ACACGCAC | -0.0188 |
| AAAGGGGA | -0.194 |
| TCCGAACA | 0.0179 |
| ACACTGTG | 0.103 |
| AGTGACCA | 0.0812 |

| Sequence | PBM E-score |
| --- | --- |
| GTGAACAC | -0.0689 |
| ATATATTA | 0.272 |
| GGCGCGAA | 0.0326 |
| AGTAAGTG | 0.0758 |
| TCTTAGCA | -0.112 |
| TCGTTAGA | -0.194 |
| CTGTTGGC | -0.174 |
| ACGAGTGA | -0.0249 |
| AGTTCTAT | 0.012 |
| ATGCGGAG | -0.151 |
| ACAACATG | 0.208 |
| ACACCTAT | 0.0417 |
| TGTTAGAA | 0.0325 |
| GTAACTTA | 0.157 |
| GGTTTCAC | 0.102 |
| GCCTCTCA | -0.239 |
| CATCCCGA | 0.0504 |
| GTATAAAA | 0.26 |
| GGCTGGGA | -0.14 |
| CCCAGGCA | -0.158 |
| AGACGTAC | -0.0439 |
| AACCTCTC | -0.0766 |
| AACGGCCG | 0.112 |
| CGATACTC | 0.101 |
| CCGTGAGG | -0.21 |

Looked up one by one from the entries so far:

| Sequence | PBM E-score |
| --- | --- |
| ACGCCACG | -0.212 |
| CGCGCGAC | 0.0018 |
| CATGCCAG | -0.054 |
| ACACTGTG | 0.103 |
| CGATACTC | 0.101 |

(further entries)

| Sequence | PBM E-score |
| --- | --- |
| GATTCGCA | 0.126 |
| CAATCATG | 0.094 |
| ACCATGCA | 0.155 |
| AGTTCTGG | 0.042 |
| GCGAGACA | -0.138 |
| CAATCATC | 0.0884 |
| AAGCCCAC | -0.0949 |
| CTTCGCCA | -0.137 |
| ACCGCCAT | 0.139 |
| ACGTCCCG | -0.067 |
| CAAAATCG | 0.093 |
| GATAGGCC | -0.0666 |
| GATTACCC | 0.192 |
| GACCCGAA | -0.0898 |
| CCTAAGGC | -0.348 |
| CTGGCAGC | -0.338 |
| ACGCGTCC | -0.152 |
| AGCATTTA | -0.0377 |
| CGGATCCC | -0.122 |
| AGACTTGC | -0.271 |
| ACAATGGC | 0.0611 |
| GTACTGAA | 0.212 |
| CTGGCCGA | -0.211 |
| AGGAGGTG | -0.309 |
| ACAAGCTG | -0.0596 |

| Sequence | PBM E-score |
| --- | --- |
| CGAGATCC | 0.00893 |
| CATGGTCA | 0.222 |
| GCGTAGCC | -0.158 |
| CACCTAAA | -0.063 |
| AAGCAGTA | 0.119 |
| ATCGAGAA | 0.226 |
| AGAAAGGG | -0.164 |
| GGCTAATA | 0.137 |
| CAAGCGCG | -0.00219 |
| GTCTTCTA | -0.0724 |
| CGCTTTGC | 0.0898 |
| AGGCGCAT | -0.04 |
| AGTCACGG | -0.0815 |
| CTAATTCC | 0.05 |
| CACACGCC | -0.0493 |
| ATTTAAAA | 0.115 |
| ATTGTGAC | 0.0953 |
| GTCAAGAA | 0.133 |
| GGGACCTA | -0.0211 |
| CGCACACG | -0.215 |
| AGAGTCTA | -0.229 |
| CCCGGCAC | -0.379 |
| CCCAAGTA | 0.0186 |
| CTAGCAGA | -0.183 |
| AATCAAGG | 0.188 |

| Sequence | PBM E-score |
| --- | --- |
| CTGAGGGA | -0.15 |
| GCAGTTTA | -0.0437 |
| GTACGCAA | -0.0571 |
| GGAGTGAA | 0.17 |
| GTGTCGGA | -0.12 |
| TCATTCAA | 0.176 |
| AGGTGTTG | -0.0487 |
| TAGAAGCA | -0.0211 |
| ACCGCACC | -0.016 |
| AACCATAA | 0.152 |
| AGCACCGC | -0.00696 |
| AGCTGAAG | 0.0392 |
| CGAACCTC | -0.0419 |
| AACGGTGC | -0.186 |
| ACTGGGCC | -0.183 |
| CCCAAACC | 0.0865 |
| CAATAATA | 0.276 |
| AAGTGGAA | 0.147 |
| CAGCCTTA | -0.252 |
| CGTCCCCA | -0.0896 |
| GGATTTGA | -0.0253 |
| AAAGCACT | 0.0393 |
| AATACGCC | -0.0343 |
| CTCTGCAC | -0.149 |
| CCGCTATC | 0.0551 |

| Sequence | PBM E-score |
| --- | --- |
| AAAGCGAC | 0.0683 |
| ATAAAAAG | 0.204 |
| GGGAATAA | 0.196 |
| ACGGGGGA | -0.263 |
| ACGACCCG | -0.0705 |
| CCATCGCC | -0.118 |
| CACGGTGC | -0.283 |
| CCTATACA | 0.032 |
| CATTATCG | 0.0028 |
| ATCGGTCA | -0.0437 |
| GACGGTTA | -0.116 |
| GAATAATA | 0.291 |
| ACAAGGAT | 0.065 |
| CTACGTAC | -0.041 |
| ACGGAACC | 0.151 |
| CTGGTGAA | -0.149 |
| ATACACAT | 0.204 |
| GTACAGCA | -0.134 |
| ACAGATAC | 0.0834 |
| AGGTTTTC | 0.00375 |
| ACCTTAAA | -0.0538 |
| AATTCGGT | 0.194 |

Exported field by field: part of the list above.
ACATTTAG
  PBM E-score = -0.132
GATAGGTA
  PBM E-score = 0.157
GATACCTA
  PBM E-score = 0.223
AAAGGGGA
  PBM E-score = -0.194
